These are yes or no findings as the source states them, for the method shown. Some results given as binding are weak or reduced against the parent protein; the word gives no strength.
Key:
Assay in all cases: SEC; complexes formed by mixing the purified components and purified on S200 before cysteine labelling; both purified
β-catenin (murine) = β-catenin (murine) (UniProt Q02248)
[1] = target: His8-tagged αE-catenin R551A (full-length) (murine) (UniProt P26231)
[2] = target: His8-tagged αE-catenin wild type (full-length) (murine) (UniProt P26231)

By UniProt entry, the sequences of proteins in these tests, tags left out. Where a name states a change or a piece, a line headed by the entry shows the natural chain unless it says otherwise. Residues count along the entry.
UniProt Q02248: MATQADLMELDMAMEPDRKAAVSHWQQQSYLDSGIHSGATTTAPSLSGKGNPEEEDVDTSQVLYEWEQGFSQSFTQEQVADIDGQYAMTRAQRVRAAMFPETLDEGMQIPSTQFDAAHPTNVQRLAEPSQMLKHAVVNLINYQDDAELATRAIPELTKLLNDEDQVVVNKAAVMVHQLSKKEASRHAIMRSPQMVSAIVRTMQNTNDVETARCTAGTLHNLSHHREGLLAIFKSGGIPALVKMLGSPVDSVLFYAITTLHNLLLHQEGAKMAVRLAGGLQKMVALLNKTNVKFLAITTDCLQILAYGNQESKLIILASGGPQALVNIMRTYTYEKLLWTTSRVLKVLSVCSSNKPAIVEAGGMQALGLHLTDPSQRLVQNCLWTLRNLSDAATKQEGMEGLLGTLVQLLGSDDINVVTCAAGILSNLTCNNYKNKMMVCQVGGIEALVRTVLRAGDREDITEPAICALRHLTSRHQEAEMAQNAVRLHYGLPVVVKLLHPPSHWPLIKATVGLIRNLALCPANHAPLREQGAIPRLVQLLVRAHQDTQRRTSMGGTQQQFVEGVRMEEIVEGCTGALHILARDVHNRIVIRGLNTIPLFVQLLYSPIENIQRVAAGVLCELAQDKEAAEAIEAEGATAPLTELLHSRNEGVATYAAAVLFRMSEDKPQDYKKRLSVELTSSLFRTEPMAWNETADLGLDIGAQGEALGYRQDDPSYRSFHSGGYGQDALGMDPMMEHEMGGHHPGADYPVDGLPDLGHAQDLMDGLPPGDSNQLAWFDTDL
UniProt P26231: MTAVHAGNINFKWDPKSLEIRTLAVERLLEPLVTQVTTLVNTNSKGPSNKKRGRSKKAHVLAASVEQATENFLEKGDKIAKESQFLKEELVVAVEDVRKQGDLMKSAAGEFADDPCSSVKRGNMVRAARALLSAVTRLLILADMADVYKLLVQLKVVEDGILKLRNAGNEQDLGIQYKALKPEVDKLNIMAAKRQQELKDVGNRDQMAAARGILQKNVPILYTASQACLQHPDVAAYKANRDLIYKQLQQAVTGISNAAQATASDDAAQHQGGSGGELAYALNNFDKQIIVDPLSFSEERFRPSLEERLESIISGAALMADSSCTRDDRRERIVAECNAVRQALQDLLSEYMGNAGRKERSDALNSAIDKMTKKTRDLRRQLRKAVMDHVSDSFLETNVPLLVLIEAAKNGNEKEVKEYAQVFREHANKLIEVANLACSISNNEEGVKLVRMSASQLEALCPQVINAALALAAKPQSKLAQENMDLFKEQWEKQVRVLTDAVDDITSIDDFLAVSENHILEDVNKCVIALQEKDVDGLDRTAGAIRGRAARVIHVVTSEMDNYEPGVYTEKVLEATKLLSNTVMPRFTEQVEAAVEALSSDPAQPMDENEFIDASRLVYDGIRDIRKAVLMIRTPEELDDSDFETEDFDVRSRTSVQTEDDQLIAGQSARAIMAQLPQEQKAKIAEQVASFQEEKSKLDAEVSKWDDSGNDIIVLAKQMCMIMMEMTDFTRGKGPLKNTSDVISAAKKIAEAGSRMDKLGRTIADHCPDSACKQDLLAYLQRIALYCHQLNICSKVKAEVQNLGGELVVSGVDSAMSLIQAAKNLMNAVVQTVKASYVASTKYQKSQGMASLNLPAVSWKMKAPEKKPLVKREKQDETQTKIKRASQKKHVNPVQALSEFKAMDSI
UniProt P09803, residues 734-884: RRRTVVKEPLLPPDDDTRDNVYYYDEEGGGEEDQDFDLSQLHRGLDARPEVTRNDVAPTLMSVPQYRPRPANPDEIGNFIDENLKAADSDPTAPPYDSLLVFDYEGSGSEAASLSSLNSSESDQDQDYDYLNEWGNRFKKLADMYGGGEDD

Substance	binding (β-catenin (murine))	binding [1]	binding [2]
cytoplasmic domain of E-cadherin (from UniProt P09803 734-884) (domain or fragment)	binds	–	–
β-catenin (from UniProt Q02248 1-781)	–	binds	binds
